Measured values taken from patent US20040146512A1.
These are yes or no findings as the source states them, for the method shown. Binding calls can cover weak binding; strength is not graded here.

Columns and labels:
[1] = target: Aβ1-40 variant G38A expressed as GST fusion protein; assay: ELISA: GST fusion protein immobilized 0.25 µg per well, antibody at 2 nM, biotin goat anti-mouse (H+L) + streptavidin-HRP, OD450
[2] = target: Aβ1-40 variant G38A expressed as GST fusion protein; assay: ELISA on immobilized GST fusion proteins (0.25 µg per well), antibody at 2 nM

binding [1]: binds
binding [2]: binds
B1: monoclonal antibody 2286 (produced by hybridoma 8A1.2A1) (antibody, V domains shown)
VH: EVKLLESGGGLVQPGGSLKLSCAASGFDFSRYWMNWVRQAPGKGLEWIGEINPDSSTINYTPSLKDKFIISRDNAKNTLYLQMSKVRSEDTALYYCARQMGYWGQGTTLTVSS
VL: DIQMTQTTSSLSASLGDRVTISCSASQGISNYLNWFQQKPDGTVKLLIYYTSSLHSGVPSRFSGSGSGTDYSLTISNLEPEDIATYYCQQYRKLPYTFGGGTKLEIKR
